# The other results are listed elsewhere or left out.
# B1: pilr alpha (protein)
# chain: MLYGVTQPKHLSASMGGSVEIPFSFYYPWELATAPDVRISWRRGHFHRQSFYSTRPPSIHKDYVNRLFLNWTEGQKSGFLRISNLQKQDQSVYFCRVELDTRSSGRQQWQSIEGTKLSIT
# Key:
# Experiment in all cases: glycan array binding signal (z-score within array); higher = stronger binding
# Conditions in all cases: glycan notation: IUPAC condensed, linker removed
# Neu5Ac(a2-8)Neu5Ac = biological target: Neu5Ac(a2-8)Neu5Ac
# Summary of the method: (§1)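 Arrays were curated from the Consortium for Functional Glycomics database, 3228 in total, and kept only where the protein sequence was available. Binding is expressed as a within-array Z-score. This score was averaged across arrays of the same protein sequence at different concentrations or buffers and across linkers, and negative values can be read as non-binding.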
# [1] = biological target: Neu5Ac(a2-8)Neu5Ac(a2-3)Gal(b1-3)GalNAc(b1-4)[Neu5Ac(a2-3)]Gal(b1-4)Glc
# Summary of the method: as §1
# [2] = biological target: Neu5Ac(a2-8)Neu5Ac(a2-3)Gal(b1-3)GalNAc(b1-4)[Neu5Ac(a2-8)Neu5Ac(a2-3)]Gal(b1-4)Glc
# Summary of the method: as §1
# [3] = biological target: Neu5Ac(a2-8)Neu5Ac(a2-3)Gal(b1-4)Glc
# Summary of the method: as §1
# [4] = biological target: Neu5Ac(a2-8)Neu5Ac(a2-3)Gal(b1-4)GlcNAc
# Summary of the method: as §1
# [5] = biological target: Neu5Ac(a2-8)Neu5Ac(a2-3)[Gal(b1-3)GalNAc(b1-4)]Gal(b1-4)Glc
# Summary of the method: as §1
# [6] = biological target: Neu5Ac(a2-8)Neu5Ac(a2-3)[GalNAc(b1-4)]Gal(b1-4)Glc
# Summary of the method: as §1
# [7] = biological target: Neu5Ac(a2-8)Neu5Ac(a2-8)Neu5Ac
# Summary of the method: as §1
# [8] = biological target: Neu5Ac(a2-8)Neu5Ac(a2-8)Neu5Ac(a2-3)Gal(b1-4)Glc
# Summary of the method: as §1
# [9] = biological target: Neu5Ac(a2-8)Neu5Ac(a2-8)Neu5Ac(a2-3)[Gal(b1-3)GalNAc(b1-4)]Gal(b1-4)Glc
# Summary of the method: as §1
# [10] = biological target: Neu5Ac(a2-8)Neu5Ac(a2-8)Neu5Ac(a2-3)[GalNAc(b1-4)]Gal(b1-4)Glc
# Summary of the method: as §1
# [11] = biological target: Neu5Ac(a2-8)Neu5Ac(a2-8)Neu5Ac(a2-8)Neu5Ac(a2-3)[GalNAc(b1-4)]Gal(b1-4)Glc
# Summary of the method: as §1
# [12] = biological target: Neu5Ac(a2-8)Neu5Gc(a2-3)Gal(b1-4)GlcNAc
# Summary of the method: as §1
# [13] = biological target: Neu5Ac(b2-6)Gal(b1-4)GlcNAc
# Summary of the method: as §1
# Neu5Ac(b2-6)GalNAc = biological target: Neu5Ac(b2-6)GalNAc
# Summary of the method: as §1
# [14] = biological target: Neu5Ac9Ac(a2-3)Gal(b1-3)GlcNAc
# Summary of the method: as §1
# [15] = biological target: Neu5Ac9Ac(a2-3)Gal(b1-4)GlcNAc
# Summary of the method: as §1
# [16] = biological target: Neu5Ac9Ac(a2-6)Gal(b1-4)GlcNAc
# Summary of the method: as §1
# [17] = biological target: Neu5Gc(a2-3)Gal(b1-3)GlcNAc
# Summary of the method: as §1
# [18] = biological target: Neu5Gc(a2-3)Gal(b1-3)[Fuc(a1-4)]GlcNAc
# Summary of the method: as §1
# Neu5Gc(a2-3)Gal(b1-4)Glc = biological target: Neu5Gc(a2-3)Gal(b1-4)Glc
# Summary of the method: as §1
# [19] = biological target: Neu5Gc(a2-3)Gal(b1-4)GlcNAc
# Summary of the method: as §1
# [20] = biological target: Neu5Gc(a2-3)Gal(b1-4)GlcNAc(b1-3)Gal(b1-4)GlcNAc(b1-2)Man(a1-3)[Neu5Gc(a2-3)Gal(b1-4)GlcNAc(b1-3)Gal(b1-4)GlcNAc(b1-2)Man(a1-6)]Man(b1-4)GlcNAc(b1-4)GlcNAc
# Summary of the method: as §1
# [21] = biological target: Neu5Gc(a2-3)Gal(b1-4)[Fuc(a1-3)]GlcNAc
# Summary of the method: as §1
# [22] = biological target: Neu5Gc(a2-6)Gal(b1-4)GlcNAc
# Summary of the method: as §1
# Neu5Gc(a2-6)GalNAc = biological target: Neu5Gc(a2-6)GalNAc
# Summary of the method: as §1
# [23] = biological target: Neu5Gc(a2-8)Neu5Ac(a2-3)Gal(b1-4)GlcNAc
# Summary of the method: as §1
# [24] = biological target: Neu5Gc(a2-8)Neu5Gc(a2-3)Gal(b1-4)GlcNAc
# Summary of the method: as §1
# [25] = biological target: Neu5Gc(a2-8)Neu5Gc(a2-3)Gal(b1-4)GlcNAc(b1-3)Gal(b1-4)GlcNAc
# Summary of the method: as §1
# [26] = biological target: Neu5Gc(a2-8)Neu5Gc(a2-6)Gal(b1-4)GlcNAc
# Summary of the method: as §1
# [27] = biological target: Neu5Gc(b2-6)Gal(b1-4)GlcNAc
# Summary of the method: as §1
binder,measurement,setting,value
B1,glycan array binding signal (z-score),Neu5Ac(a2-8)Neu5Ac,0.165
same,glycan array binding signal (z-score),[1],-0.262
same,glycan array binding signal (z-score),[2],0.377
same,glycan array binding signal (z-score),[3],-0.807
same,glycan array binding signal (z-score),[4],-0.265
same,glycan array binding signal (z-score),[5],-0.167
same,glycan array binding signal (z-score),[6],0.799
same,glycan array binding signal (z-score),[7],-0.392
same,glycan array binding signal (z-score),[8],-0.454
same,glycan array binding signal (z-score),[9],-0.202
same,glycan array binding signal (z-score),[10],0.613
same,glycan array binding signal (z-score),[11],-0.61
same,glycan array binding signal (z-score),[12],-0.196
same,glycan array binding signal (z-score),[13],-0.768
same,glycan array binding signal (z-score),Neu5Ac(b2-6)GalNAc,-0.742
same,glycan array binding signal (z-score),[14],-0.175
same,glycan array binding signal (z-score),[15],-0.345
same,glycan array binding signal (z-score),[16],-0.47
same,glycan array binding signal (z-score),[17],-0.368
same,glycan array binding signal (z-score),[18],-0.745
same,glycan array binding signal (z-score),Neu5Gc(a2-3)Gal(b1-4)Glc,-0.544
same,glycan array binding signal (z-score),[19],0.05
same,glycan array binding signal (z-score),[20],-0.532
same,glycan array binding signal (z-score),[21],-0.261
same,glycan array binding signal (z-score),[22],-0.584
same,glycan array binding signal (z-score),Neu5Gc(a2-6)GalNAc,-0.353
same,glycan array binding signal (z-score),[23],-0.381
same,glycan array binding signal (z-score),[24],-0.278
same,glycan array binding signal (z-score),[25],0.003
same,glycan array binding signal (z-score),[26],-0.725
same,glycan array binding signal (z-score),[27],0.088
